Data taken from paper PMC9835385.
Results are given in words; binding and its absence hold for the method and conditions named. In cells and extracts the contact can be indirect. Some results given as binding are weak or reduced against the parent protein; the word gives no strength.

By UniProt entry, the sequences of proteins in these tests, tags left out. Residues count along the entry.
UniProt P26599: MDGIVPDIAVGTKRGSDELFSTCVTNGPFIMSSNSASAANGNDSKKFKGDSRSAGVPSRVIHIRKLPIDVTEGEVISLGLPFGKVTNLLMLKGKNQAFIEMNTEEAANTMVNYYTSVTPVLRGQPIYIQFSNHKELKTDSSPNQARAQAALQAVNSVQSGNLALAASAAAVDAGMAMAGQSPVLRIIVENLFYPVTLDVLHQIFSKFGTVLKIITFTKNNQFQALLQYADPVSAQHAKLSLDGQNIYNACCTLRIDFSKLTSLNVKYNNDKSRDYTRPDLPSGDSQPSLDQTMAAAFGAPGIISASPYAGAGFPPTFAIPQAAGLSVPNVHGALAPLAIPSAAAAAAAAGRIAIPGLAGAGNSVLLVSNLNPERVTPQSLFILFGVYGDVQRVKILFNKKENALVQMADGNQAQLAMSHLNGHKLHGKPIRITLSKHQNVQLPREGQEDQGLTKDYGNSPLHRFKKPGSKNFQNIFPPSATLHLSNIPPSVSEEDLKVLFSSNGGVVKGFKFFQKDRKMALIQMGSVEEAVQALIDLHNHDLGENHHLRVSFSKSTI
UniProt P46531, residues 19-2555: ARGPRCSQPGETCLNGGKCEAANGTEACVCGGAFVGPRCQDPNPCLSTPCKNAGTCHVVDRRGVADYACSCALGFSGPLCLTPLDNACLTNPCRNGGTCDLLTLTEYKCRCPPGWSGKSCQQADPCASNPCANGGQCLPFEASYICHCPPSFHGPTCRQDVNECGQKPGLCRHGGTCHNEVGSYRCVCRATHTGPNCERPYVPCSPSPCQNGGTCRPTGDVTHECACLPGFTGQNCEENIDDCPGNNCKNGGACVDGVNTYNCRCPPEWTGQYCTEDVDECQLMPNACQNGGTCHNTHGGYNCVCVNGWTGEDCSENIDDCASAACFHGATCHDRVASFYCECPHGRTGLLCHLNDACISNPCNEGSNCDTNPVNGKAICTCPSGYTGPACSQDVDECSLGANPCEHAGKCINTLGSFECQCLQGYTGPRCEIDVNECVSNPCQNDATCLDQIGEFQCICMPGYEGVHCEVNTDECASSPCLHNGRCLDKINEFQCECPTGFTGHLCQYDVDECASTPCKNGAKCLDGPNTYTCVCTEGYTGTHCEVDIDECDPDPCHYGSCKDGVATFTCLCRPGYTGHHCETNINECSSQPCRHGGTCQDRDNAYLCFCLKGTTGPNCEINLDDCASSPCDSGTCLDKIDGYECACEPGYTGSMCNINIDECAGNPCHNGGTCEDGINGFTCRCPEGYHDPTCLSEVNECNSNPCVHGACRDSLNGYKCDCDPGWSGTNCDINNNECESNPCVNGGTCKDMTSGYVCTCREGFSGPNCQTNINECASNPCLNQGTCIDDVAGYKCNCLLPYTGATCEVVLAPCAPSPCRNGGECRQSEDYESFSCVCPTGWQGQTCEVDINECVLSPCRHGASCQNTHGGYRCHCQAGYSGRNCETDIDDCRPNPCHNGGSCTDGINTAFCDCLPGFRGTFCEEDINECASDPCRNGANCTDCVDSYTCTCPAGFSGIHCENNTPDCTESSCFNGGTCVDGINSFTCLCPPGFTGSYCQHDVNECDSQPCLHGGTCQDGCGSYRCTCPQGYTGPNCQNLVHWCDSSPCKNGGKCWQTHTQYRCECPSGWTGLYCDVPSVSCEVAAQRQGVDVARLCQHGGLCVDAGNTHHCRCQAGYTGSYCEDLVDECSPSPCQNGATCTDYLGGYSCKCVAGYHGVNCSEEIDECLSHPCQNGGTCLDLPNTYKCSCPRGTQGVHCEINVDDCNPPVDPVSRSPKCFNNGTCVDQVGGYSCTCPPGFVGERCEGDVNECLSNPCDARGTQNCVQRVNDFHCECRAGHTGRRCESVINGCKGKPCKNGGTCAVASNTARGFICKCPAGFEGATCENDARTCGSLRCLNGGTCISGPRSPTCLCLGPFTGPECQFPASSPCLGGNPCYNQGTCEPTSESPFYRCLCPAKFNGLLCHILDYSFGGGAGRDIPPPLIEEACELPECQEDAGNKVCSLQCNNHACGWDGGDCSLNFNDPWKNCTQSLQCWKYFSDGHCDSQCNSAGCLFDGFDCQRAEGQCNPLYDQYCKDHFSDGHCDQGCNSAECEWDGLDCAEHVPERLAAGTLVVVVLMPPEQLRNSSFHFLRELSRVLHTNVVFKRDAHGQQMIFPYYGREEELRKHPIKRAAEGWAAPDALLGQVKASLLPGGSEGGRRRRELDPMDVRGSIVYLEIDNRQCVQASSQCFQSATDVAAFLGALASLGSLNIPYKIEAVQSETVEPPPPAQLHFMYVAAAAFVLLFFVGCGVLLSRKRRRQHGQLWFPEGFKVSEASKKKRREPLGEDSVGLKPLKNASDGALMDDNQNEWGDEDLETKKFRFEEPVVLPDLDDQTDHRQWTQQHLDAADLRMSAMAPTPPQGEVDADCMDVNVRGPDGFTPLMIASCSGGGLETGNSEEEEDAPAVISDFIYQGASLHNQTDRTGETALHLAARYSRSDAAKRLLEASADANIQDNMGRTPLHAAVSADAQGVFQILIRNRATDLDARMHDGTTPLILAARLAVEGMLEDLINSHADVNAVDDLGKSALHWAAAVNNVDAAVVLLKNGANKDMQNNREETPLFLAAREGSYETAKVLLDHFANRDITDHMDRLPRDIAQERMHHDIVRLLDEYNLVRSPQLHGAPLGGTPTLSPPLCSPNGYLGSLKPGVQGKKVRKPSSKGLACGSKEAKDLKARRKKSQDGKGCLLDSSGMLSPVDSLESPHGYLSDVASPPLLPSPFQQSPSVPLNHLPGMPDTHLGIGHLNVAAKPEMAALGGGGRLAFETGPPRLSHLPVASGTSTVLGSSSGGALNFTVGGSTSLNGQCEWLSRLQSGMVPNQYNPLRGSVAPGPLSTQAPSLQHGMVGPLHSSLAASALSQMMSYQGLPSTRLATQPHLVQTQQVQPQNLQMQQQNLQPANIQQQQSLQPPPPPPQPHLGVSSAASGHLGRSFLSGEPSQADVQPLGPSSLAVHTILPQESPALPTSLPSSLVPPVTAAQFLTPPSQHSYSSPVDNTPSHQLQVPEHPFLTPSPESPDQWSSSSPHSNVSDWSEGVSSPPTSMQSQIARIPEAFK

Target: polypyrimidine tract-binding protein 1 (human (endogenous in A549)) (UniProt P26599)
Assay: co-IP; A549 cell lysate incubated overnight at 4 °C with magnetic beads carrying anti-PTBP1 antibody or anti-IgG (Magna RIP kit), then Western blot; cells irradiated before lysis; called immunoprecipitation or RIP in text and legend

binding: binds
Substance: Notch1 (from UniProt P46531 19-2555) (receptor)
